# Some results were stated once for a whole list of compounds, not compound by compound.
# Columns and labels:
# Assay type in all cases: cell-based, human
# Details in all cases: one-time treatment
# [1] = test system: U251MG cells; assay: Colony survival assay, U251MG
# Description: The effect of the isolated or synthesized compounds in a colony survival assay was performed.
# This assay was performed as previously reported (Xu, Y., supra). The assay was performed as previously reported. Briefly, cells were seeded as single-cell in 6-well plates (250 cells per well), treated once the next day with compounds for 72 h, and allowed to grow until large colonies were visible. Colonies were stained with crystal violet for 4 h and counted with FluorChem imaging system (Protein Simple, Santa Clara, Calif.).
# [2] = test system: MDA-MB-231 cells; assay: Colony survival assay, MDA-MB-231
# [3] = test system: MCF-7 cells; assay: Colony survival assay, MCF-7
substance,measurement,setting,value
"(4S,6R,E)-4,7-dihydroxy-6,10-dimethyl-2-oxo-2,4,5,6,7,8,9,10-octahydro-7,10-epoxycyclodeca[b]furan-3-yl)methyl(E)-2-methylbut-2-enoate [Compound 22]",Concentration giving significant decrease of U251MG colony numbers,[1],≥ 1 µM
same,Concentration giving significant decrease of MDA-MB-231 colony numbers,[2],≥ 1 µM
same,Concentration inhibiting MCF-7 colony numbers,[3],≥ 2.5 µM
